Measurements reported in patent US5888970 (dated 1999).

Experiment: general procedure: Boc solid-phase peptide synthesis; Oxime resin (substitution level=0.96 mmol/g or 0.62 mmol/g, Novabiochem); HBTU, TBTU
Details: conjugation step, TFA salt

Cyclo-[D-Val-NMeArg-Gly-Asp-Dap(EOE-Mercaptoacetyl)-Cys(Acm)]
conjugation yield: 90%
